From the supplement of paper PMC6411743
± gives the standard deviation of the averaged measurements. The entries are a selection whose mix differs from that of the whole data set. Most entries show no effect beyond the scatter of the controls.

The chains behind the UniProt entries cited, without tags or fusion partners. Where a name states a change or a piece, a line headed by the entry shows the natural chain unless it says otherwise.
UniProt P40425: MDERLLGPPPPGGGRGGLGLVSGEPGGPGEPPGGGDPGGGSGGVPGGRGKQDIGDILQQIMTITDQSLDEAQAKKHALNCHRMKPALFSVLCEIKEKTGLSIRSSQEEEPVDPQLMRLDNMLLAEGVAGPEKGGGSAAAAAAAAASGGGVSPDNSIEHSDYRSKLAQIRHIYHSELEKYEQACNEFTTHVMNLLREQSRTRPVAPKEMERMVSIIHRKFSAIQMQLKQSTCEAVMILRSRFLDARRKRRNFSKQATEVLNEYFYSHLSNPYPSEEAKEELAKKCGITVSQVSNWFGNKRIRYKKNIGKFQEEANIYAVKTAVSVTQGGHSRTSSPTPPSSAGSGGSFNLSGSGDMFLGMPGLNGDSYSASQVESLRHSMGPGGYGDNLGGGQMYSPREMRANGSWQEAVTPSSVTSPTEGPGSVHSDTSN
UniProt P48059, whole entry: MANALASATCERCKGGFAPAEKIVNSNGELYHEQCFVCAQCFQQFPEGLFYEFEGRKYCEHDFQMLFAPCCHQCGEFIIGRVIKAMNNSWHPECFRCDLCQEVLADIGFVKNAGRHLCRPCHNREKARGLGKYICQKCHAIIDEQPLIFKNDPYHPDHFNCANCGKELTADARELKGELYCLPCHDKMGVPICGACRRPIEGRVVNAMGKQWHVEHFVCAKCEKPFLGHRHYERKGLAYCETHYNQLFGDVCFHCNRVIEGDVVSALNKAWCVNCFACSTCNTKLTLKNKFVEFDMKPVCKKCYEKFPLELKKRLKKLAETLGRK
UniProt P51858: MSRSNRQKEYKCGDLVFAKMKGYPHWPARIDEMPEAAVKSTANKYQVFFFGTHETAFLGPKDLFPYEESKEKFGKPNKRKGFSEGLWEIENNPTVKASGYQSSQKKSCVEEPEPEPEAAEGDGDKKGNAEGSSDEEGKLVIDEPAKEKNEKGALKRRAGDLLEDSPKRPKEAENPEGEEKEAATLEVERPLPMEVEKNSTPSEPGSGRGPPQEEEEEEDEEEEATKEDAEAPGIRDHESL
UniProt P52789: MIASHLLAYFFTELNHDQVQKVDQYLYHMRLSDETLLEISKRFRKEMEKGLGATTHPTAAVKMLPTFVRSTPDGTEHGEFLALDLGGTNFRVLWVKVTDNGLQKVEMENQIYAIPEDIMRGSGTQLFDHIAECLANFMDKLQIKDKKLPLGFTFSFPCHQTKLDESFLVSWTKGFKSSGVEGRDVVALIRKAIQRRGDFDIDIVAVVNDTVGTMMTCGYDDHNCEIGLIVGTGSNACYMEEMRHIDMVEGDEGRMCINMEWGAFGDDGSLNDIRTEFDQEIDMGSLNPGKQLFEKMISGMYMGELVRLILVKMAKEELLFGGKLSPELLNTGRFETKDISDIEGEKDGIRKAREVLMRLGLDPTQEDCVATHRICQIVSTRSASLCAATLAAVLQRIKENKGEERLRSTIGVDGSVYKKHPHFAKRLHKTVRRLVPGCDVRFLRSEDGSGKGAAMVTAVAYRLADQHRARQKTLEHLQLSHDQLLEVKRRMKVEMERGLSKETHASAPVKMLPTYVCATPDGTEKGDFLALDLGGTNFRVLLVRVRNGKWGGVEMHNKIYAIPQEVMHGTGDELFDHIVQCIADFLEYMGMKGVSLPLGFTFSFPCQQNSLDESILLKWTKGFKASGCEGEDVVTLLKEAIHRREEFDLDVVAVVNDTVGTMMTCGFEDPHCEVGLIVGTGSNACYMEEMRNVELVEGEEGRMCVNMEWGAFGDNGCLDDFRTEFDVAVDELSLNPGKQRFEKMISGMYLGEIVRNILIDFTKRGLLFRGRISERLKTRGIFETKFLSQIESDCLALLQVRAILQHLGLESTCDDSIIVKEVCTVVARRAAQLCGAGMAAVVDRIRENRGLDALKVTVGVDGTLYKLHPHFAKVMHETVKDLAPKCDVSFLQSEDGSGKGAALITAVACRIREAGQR
UniProt P52739: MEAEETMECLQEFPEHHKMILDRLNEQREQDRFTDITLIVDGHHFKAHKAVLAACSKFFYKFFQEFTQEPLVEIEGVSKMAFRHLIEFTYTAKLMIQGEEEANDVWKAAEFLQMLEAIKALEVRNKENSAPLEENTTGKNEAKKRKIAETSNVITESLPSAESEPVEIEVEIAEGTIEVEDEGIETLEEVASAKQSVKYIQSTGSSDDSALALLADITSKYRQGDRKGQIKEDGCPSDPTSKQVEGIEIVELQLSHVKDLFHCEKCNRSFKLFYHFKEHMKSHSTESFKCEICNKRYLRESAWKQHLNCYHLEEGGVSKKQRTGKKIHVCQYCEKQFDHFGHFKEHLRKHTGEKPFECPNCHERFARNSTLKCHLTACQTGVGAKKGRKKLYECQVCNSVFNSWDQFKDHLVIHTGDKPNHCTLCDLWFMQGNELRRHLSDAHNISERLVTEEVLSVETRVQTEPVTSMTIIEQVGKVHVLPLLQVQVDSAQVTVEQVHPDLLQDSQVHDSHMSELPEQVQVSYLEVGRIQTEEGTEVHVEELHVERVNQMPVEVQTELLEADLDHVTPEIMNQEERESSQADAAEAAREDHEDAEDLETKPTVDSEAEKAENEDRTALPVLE
UniProt P49336: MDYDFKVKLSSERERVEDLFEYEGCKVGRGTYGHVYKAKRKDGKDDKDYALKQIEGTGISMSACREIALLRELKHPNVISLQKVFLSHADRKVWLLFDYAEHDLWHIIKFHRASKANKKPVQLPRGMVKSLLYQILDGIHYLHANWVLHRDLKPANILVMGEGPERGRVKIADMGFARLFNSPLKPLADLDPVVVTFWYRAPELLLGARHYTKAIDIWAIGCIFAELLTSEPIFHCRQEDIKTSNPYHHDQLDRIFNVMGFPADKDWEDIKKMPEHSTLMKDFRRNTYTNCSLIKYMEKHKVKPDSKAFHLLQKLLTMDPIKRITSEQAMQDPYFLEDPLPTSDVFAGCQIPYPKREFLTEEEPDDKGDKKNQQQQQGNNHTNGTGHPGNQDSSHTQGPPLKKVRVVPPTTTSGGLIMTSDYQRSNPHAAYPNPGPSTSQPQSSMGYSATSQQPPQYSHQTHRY
UniProt P40855: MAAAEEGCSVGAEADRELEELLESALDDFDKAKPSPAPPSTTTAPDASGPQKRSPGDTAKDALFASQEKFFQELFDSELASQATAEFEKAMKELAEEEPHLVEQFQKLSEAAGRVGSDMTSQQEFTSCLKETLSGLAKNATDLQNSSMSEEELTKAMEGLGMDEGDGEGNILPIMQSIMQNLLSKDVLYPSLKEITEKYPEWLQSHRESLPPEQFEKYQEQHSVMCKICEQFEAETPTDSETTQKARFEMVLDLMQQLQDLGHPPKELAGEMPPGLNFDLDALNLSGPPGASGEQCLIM
UniProt P50416: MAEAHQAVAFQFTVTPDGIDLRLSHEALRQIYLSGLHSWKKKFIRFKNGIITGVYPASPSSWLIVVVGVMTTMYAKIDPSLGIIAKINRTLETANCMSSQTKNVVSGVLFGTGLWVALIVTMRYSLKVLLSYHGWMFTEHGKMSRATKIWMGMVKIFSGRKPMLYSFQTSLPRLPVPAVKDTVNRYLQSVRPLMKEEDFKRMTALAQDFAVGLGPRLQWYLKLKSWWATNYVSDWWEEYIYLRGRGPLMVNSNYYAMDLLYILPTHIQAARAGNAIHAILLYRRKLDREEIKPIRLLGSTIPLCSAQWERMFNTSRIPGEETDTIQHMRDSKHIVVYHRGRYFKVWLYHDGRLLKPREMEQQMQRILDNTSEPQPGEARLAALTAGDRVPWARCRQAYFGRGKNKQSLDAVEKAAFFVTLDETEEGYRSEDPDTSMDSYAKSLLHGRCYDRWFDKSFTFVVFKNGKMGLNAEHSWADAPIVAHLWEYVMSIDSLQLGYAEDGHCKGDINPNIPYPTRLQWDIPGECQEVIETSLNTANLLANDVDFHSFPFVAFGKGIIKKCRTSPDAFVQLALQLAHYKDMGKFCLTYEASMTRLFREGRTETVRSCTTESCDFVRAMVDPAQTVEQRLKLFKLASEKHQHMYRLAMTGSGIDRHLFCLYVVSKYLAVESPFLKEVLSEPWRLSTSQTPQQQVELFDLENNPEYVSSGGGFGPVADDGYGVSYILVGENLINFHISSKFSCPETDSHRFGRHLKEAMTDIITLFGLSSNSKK
UniProt P49116: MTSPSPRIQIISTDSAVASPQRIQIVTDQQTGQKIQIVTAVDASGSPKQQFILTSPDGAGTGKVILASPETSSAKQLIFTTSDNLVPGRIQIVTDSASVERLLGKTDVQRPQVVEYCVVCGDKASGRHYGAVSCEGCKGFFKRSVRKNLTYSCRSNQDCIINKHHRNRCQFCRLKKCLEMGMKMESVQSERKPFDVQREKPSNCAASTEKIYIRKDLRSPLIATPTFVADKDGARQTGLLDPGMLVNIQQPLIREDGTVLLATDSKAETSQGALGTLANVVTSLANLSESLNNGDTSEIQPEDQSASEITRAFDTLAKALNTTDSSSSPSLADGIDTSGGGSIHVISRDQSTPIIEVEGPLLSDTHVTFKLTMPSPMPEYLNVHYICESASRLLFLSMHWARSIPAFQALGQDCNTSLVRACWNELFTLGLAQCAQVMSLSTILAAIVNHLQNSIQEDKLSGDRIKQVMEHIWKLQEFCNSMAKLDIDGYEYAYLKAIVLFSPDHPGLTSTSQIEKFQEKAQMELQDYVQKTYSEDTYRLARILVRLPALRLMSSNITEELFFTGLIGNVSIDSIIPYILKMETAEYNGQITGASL
UniProt P51798: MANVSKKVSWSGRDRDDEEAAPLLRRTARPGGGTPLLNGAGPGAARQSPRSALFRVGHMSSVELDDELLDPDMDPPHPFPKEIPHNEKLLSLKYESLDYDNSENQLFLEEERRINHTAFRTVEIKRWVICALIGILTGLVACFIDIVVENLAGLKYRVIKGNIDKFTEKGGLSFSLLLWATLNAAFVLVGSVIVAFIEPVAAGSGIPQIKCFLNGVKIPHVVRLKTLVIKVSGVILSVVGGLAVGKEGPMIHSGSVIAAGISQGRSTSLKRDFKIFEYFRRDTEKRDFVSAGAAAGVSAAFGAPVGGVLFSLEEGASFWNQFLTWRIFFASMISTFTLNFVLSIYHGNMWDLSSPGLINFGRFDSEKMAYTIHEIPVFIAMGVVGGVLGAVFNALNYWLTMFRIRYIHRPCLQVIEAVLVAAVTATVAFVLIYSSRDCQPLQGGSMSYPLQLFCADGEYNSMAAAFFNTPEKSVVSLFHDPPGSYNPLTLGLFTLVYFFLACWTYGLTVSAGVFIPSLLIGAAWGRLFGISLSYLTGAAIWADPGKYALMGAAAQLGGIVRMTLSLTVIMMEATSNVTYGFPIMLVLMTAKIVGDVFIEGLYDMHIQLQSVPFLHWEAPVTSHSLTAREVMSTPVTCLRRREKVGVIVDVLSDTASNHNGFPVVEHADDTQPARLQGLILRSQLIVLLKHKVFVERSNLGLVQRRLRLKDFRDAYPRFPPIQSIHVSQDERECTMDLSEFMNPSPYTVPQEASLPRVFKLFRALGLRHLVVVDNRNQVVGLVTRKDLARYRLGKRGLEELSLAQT
UniProt P41226: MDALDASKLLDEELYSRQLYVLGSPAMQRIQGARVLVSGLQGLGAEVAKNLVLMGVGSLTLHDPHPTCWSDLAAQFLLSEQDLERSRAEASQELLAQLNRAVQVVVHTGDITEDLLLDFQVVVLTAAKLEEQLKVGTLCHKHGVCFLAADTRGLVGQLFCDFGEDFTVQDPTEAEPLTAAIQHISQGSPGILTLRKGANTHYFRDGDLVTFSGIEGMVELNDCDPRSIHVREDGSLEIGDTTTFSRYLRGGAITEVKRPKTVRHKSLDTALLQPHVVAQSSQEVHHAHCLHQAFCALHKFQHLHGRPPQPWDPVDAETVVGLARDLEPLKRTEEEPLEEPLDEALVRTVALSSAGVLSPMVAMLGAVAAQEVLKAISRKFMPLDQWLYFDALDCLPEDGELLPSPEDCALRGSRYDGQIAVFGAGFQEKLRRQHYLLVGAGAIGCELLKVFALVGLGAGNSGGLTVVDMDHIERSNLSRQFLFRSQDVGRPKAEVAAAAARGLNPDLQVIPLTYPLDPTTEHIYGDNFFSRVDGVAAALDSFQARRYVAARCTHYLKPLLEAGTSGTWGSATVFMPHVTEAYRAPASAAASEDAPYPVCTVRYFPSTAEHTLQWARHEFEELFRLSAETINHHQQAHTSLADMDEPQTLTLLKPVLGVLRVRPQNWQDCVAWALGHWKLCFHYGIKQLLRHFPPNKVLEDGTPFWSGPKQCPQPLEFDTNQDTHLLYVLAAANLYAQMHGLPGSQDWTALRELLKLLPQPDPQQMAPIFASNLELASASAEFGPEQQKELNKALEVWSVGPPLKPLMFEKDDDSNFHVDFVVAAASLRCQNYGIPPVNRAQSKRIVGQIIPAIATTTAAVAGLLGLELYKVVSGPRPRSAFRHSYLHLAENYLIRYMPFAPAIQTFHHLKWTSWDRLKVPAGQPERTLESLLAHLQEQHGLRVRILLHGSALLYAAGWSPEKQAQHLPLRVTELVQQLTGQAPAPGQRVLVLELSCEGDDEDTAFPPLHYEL

These targets were tested with Nc1ncnc2c1ncn2[C@@H]1O[C@H](COP(=O)(O)OP(=O)(O)OP(=O)(O)O)[C@@H](O)[C@H]1O [adenosine triphosphate] (assay: NP40-soluble protein abundance relative to vehicle (solubility fold change) (ratio); higher = more soluble protein in presence of ATP). Conditions: concentration: 0.1mM.
Procedure, shortened: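 Values are fold changes against the detergent-processed vehicle, based on vsn-normalised intensities. Jurkat crude lysate was treated at eight concentrations from 0.1 to 10 mM (10 min at room temperature, then 3 min at 37 °C), solubilised with 0.8% NP40 and benzonase, ultracentrifuged and analysed by TMT-labelled LC-MS/MS over three independent experiments.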
With ACTR1B (UniProt P42025) the NP40-soluble protein abundance was 0.9986 ± 0.008.
With PBX2 (UniProt P40425) the NP40-soluble protein abundance was 0.985 ± 0.12.
Work on UQCRFS1 (UniProt P47985) yielded an NP40-soluble protein abundance of 1.06 ± 0.097.
WAS (UniProt P42768) was tested, and the NP40-soluble protein abundance was 0.917 ± 0.096.
For USP8 (UniProt P40818), the NP40-soluble protein abundance was 1.02 ± 0.026.
UniProt P48059 and related entries showed an NP40-soluble protein abundance of 1.04 ± 0.052.
In the case of HDGF (UniProt P51858), the NP40-soluble protein abundance is reported as 0.952 ± 0.013.
Target SERPINB8 (UniProt P50452) has an NP40-soluble protein abundance of 1.04 ± 0.092.
Target MAPKAPK2 (UniProt P49137) has an NP40-soluble protein abundance of 1.01 ± 0.011.
UniProt P52789 and related entries gave an NP40-soluble protein abundance of 1.03 ± 0.02.
With UniProt P52739 and related entries the NP40-soluble protein abundance was 1.08 ± 0.2.
In the case of UniProt P45983-3|P45983-4, the NP40-soluble protein abundance is reported as 1.04 ± 0.068.
UniProt P49336 and related entries showed an NP40-soluble protein abundance of 1.02 ± 0.067.
With UniProt P38117 and related entries the NP40-soluble protein abundance was 0.987 ± 0.014.
PTDSS1 (UniProt P48651) was tested, and the NP40-soluble protein abundance was 0.917 ± 0.021.
UniProt P45984 and related entries was tested, and the NP40-soluble protein abundance was 1.05 ± 0.11.
UniProt P41214 showed an NP40-soluble protein abundance of 1.02 ± 0.062.
UniProt P36402-5 was tested, and the NP40-soluble protein abundance was 0.874 ± 0.15.
Work on UniProt P40855 and related entries yielded an NP40-soluble protein abundance of 0.891 ± 0.15.
With HSPA13 (UniProt P48723) the NP40-soluble protein abundance was 0.995 ± 0.046.
STT3A (UniProt P46977) was tested, and the NP40-soluble protein abundance was 1.07 ± 0.084.
UniProt P36507 gave an NP40-soluble protein abundance of 1.01 ± 0.015.
Work on NDUFA8 (UniProt P51970) yielded an NP40-soluble protein abundance of 0.974 ± 0.063.
Work on PSMC4 (UniProt P43686) yielded an NP40-soluble protein abundance of 1.005 ± 0.0092.
CPT1A (UniProt P50416) showed an NP40-soluble protein abundance of 0.979 ± 0.041.
UniProt P45974 and related entries was tested, and the NP40-soluble protein abundance was 1.04 ± 0.059.
GMPS (UniProt P49915) was tested, and the NP40-soluble protein abundance was 1.04 ± 0.071.
For CAMLG (UniProt P49069), the NP40-soluble protein abundance was 0.967 ± 0.064.
With UniProt P45880 and related entries the NP40-soluble protein abundance was 0.991 ± 0.07.
Work on LMAN1 (UniProt P49257) yielded an NP40-soluble protein abundance of 1.05 ± 0.061.
With RFC5 (UniProt P40937) the NP40-soluble protein abundance was 1.04 ± 0.026.
In the case of UniProt P41227, the NP40-soluble protein abundance is reported as 0.996 ± 0.036.
In the case of UniProt P49116 and related entries, the NP40-soluble protein abundance is reported as 1.03 ± 0.046.
With UniProt P51798 and related entries the NP40-soluble protein abundance was 1.05 ± 0.065.
In the case of RECQL (UniProt P46063), the NP40-soluble protein abundance is reported as 1.04 ± 0.11.
UBA7 (UniProt P41226) gave an NP40-soluble protein abundance of 1.06 ± 0.057.
UniProt P49902 and related entries was tested, and the NP40-soluble protein abundance was 1.06 ± 0.064.
Work on ANP32A (UniProt P39687) yielded an NP40-soluble protein abundance of 0.819 ± 0.13.

Same assay, conditions: concentration: 0.5mM
ACTR1B (UniProt P42025) gave an NP40-soluble protein abundance of 0.977 ± 0.072.
PBX2 (UniProt P40425) showed an NP40-soluble protein abundance of 0.973 ± 0.12.
Target UQCRFS1 (UniProt P47985) has an NP40-soluble protein abundance of 1.06 ± 0.083.
In the case of WAS (UniProt P42768), the NP40-soluble protein abundance is reported as 0.875 ± 0.081.
USP8 (UniProt P40818) was tested, and the NP40-soluble protein abundance was 1.02 ± 0.045.
Target UniProt P48059 and related entries has an NP40-soluble protein abundance of 1.03 ± 0.043.
For HDGF (UniProt P51858), the NP40-soluble protein abundance was 0.979 ± 0.024.
SERPINB8 (UniProt P50452) gave an NP40-soluble protein abundance of 1.05 ± 0.07.
Work on MAPKAPK2 (UniProt P49137) yielded an NP40-soluble protein abundance of 0.99 ± 0.049.
Work on UniProt P52789 and related entries yielded an NP40-soluble protein abundance of 1.03 ± 0.027.
UniProt P52739 and related entries gave an NP40-soluble protein abundance of 1.06 ± 0.062.
For UniProt P45983-3|P45983-4, the NP40-soluble protein abundance was 1.06 ± 0.033.
For UniProt P49336 and related entries, the NP40-soluble protein abundance was 1.03 ± 0.029.
With UniProt P38117 and related entries the NP40-soluble protein abundance was 0.9725 ± 0.0096.
PTDSS1 (UniProt P48651) gave an NP40-soluble protein abundance of 1.06 ± 0.058.
UniProt P45984 and related entries gave an NP40-soluble protein abundance of 1.03 ± 0.037.
For UniProt P41214, the NP40-soluble protein abundance was 1.04 ± 0.078.
With UniProt P36402-5 the NP40-soluble protein abundance was 0.872 ± 0.14.
UniProt P40855 and related entries showed an NP40-soluble protein abundance of 0.855 ± 0.14.
HSPA13 (UniProt P48723) showed an NP40-soluble protein abundance of 1.01 ± 0.031.
Target STT3A (UniProt P46977) has an NP40-soluble protein abundance of 1.03 ± 0.056.
With UniProt P36507 the NP40-soluble protein abundance was 1.01 ± 0.055.
NDUFA8 (UniProt P51970) gave an NP40-soluble protein abundance of 0.938 ± 0.06.
PSMC4 (UniProt P43686) was tested, and the NP40-soluble protein abundance was 0.978 ± 0.024.
With CPT1A (UniProt P50416) the NP40-soluble protein abundance was 0.969 ± 0.0099.
With UniProt P45974 and related entries the NP40-soluble protein abundance was 1.03 ± 0.06.
Work on GMPS (UniProt P49915) yielded an NP40-soluble protein abundance of 1.05 ± 0.056.
In the case of CAMLG (UniProt P49069), the NP40-soluble protein abundance is reported as 0.929 ± 0.016.
For UniProt P45880 and related entries, the NP40-soluble protein abundance was 1.02 ± 0.018.
LMAN1 (UniProt P49257) gave an NP40-soluble protein abundance of 1.06 ± 0.072.
RFC5 (UniProt P40937) was tested, and the NP40-soluble protein abundance was 1.13 ± 0.053.
Work on UniProt P41227 yielded an NP40-soluble protein abundance of 0.979 ± 0.062.
UniProt P49116 and related entries was tested, and the NP40-soluble protein abundance was 1.04 ± 0.04.
Target UniProt P51798 and related entries has an NP40-soluble protein abundance of 1.05 ± 0.039.
RECQL (UniProt P46063) gave an NP40-soluble protein abundance of 1.03 ± 0.027.
UBA7 (UniProt P41226) gave an NP40-soluble protein abundance of 0.974 ± 0.082.
UniProt P49902 and related entries showed an NP40-soluble protein abundance of 1.01 ± 0.057.
ANP32A (UniProt P39687) was tested, and the NP40-soluble protein abundance was 0.821 ± 0.15.
